Library screening results

Source: ChEMBL document CHEMBL3988442, “University of Dundee, Small-Polar-MMV Screening Library” (2021).

Mtb growth Cornell: 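Whole-cell assay for inhibitors of Mycobacterium tuberculosis growth, labelled Cornell in the record; the read-out is not stated. The concentration is filed as 10 mM, unlikely as a test dose, so the dose is not known. Higher means stronger inhibition (inferred from two other growth screens of the library). Of about 53,000 compounds tested this way, about 900 (1.7%) reached 50% or more in at least one test.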
Mtb heat-shock: 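Assay on Mycobacterium tuberculosis, filed only as a heat shock assay from Cornell; the read-out is not stated. The concentration is filed as 10 mM, unlikely as a test dose, so the dose is not known. Higher reads as stronger inhibition (inferred: compounds with an IC50 in retests scored well above the rest). Of about 69,000 compounds tested this way, about 930 (1.4%) reached 50% or more in at least one test.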

The filed quantity is “Percent Effect” (%). The record does not define 0% and 100%; most values in the screen are far below 50% and negative numbers occur (in some assays of this library far below -100). The compounds are a random part of those screened.

{"smiles": "Cc1ccc(C)c2c(O)cc(CN[C@H]3CCCCNC3=O)nc12", "Mtb growth Cornell": -17.1, "Mtb heat-shock": 11.14}
{"smiles": "Cn1nnnc1SCCNC1CCN(c2ccc3c(c2)OCO3)CC1", "Mtb growth Cornell": -1.948, "Mtb heat-shock": -4.353}
{"smiles": "Cc1cc(C(=O)N2CCCC(c3cc(=O)nc4n3CCC4)C2)on1", "stereo": "stereo unspecified", "Mtb growth Cornell": 40.38, "Mtb heat-shock": -5.345}
{"smiles": "CC(c1ccc(Cl)cc1)N1CCN(CCS(C)(=O)=O)CC1", "stereo": "stereo unspecified", "Mtb heat-shock": 3.178}
{"smiles": "[H][C@@]12C[C@@H](Oc3ccccc3)C[C@]1([H])CN(Cc1cnccn1)C2", "Mtb growth Cornell": 24.6, "Mtb heat-shock": -8.402}
{"smiles": "[H][C@@]12CCN(c3cccc(F)c3)C[C@@]1([H])O[C@H](C(=O)N1CCN(C)CC1)C2", "Mtb growth Cornell": -34.47, "Mtb heat-shock": -17.91}
{"smiles": "Cc1cc(C)n(CC2CCCCN2C(=O)c2ccc3c(c2)OCO3)n1", "stereo": "stereo unspecified", "Mtb heat-shock": -13.43}
{"smiles": "CC(C)n1cnnc1Cn1c(=O)cnc2ccccc21", "Mtb heat-shock": -5.939}
{"smiles": "CC(=O)N1N=C(c2cccs2)OC1C(=O)Nc1ccc(C)cc1", "stereo": "stereo unspecified", "Mtb growth Cornell": 19.96, "Mtb heat-shock": 10.25}
{"smiles": "COCC1CCN(S(=O)(=O)N2C[C@@H](C)[C@@](C)(O)C2)CC1", "Mtb growth Cornell": 1.245, "Mtb heat-shock": 5.728}
{"smiles": "CC(Cn1ccnc1)NC(=O)N1CCN(Cc2ccco2)CC1", "stereo": "stereo unspecified", "Mtb heat-shock": 7.13}
{"smiles": "Cl.O=C(Nc1cccc(C(=O)OCC2CCCN2)c1)c1ccoc1", "stereo": "stereo unspecified", "Mtb heat-shock": -206.7}
{"smiles": "CCOCCNC(=O)c1cc(COc2cncc(Cl)c2)on1", "Mtb heat-shock": 16.22}
{"smiles": "CS(=O)(=O)c1ccc(O[C@H]2COCCN(C(=O)c3ccno3)C2)cc1", "Mtb growth Cornell": -39.53, "Mtb heat-shock": -7.306}
{"smiles": "Cc1ncsc1C(=O)NCCNc1ncccn1", "Mtb growth Cornell": -15.67, "Mtb heat-shock": -28.57}
{"smiles": "COc1cccc(CN2CCC3(CCN(c4ncc(C)cn4)C3)C2=O)c1", "stereo": "stereo unspecified", "Mtb growth Cornell": 19.33, "Mtb heat-shock": -29.22}
{"smiles": "CCN(CC)C(=O)CNC(=O)c1c[nH]c2ccc(OC)cc12", "Mtb heat-shock": 5.148}
{"smiles": "CC(=O)NCCNC(=O)c1cc(C)ccc1SC1CCCC1", "Mtb growth Cornell": 20.89, "Mtb heat-shock": -10.7}
{"smiles": "Cc1cnn(CCNCc2csc(C)n2)c1", "Mtb growth Cornell": 2.389, "Mtb heat-shock": 4.294}
{"smiles": "CC(c1ccc(F)cc1F)N1CCN(CCC(=O)NC(N)=O)CC1", "stereo": "stereo unspecified", "Mtb growth Cornell": -2.983, "Mtb heat-shock": 27.48}
{"smiles": "CC(=O)N1CCCCCC1C1CCN(Cc2nnc(C(C)(C)C)o2)CC1.Cl", "stereo": "stereo unspecified", "Mtb growth Cornell": -21.62, "Mtb heat-shock": 24.91}
{"smiles": "Cc1nc(CN2CCC(Oc3ccc(F)cc3C)(C(=O)O)CC2)co1", "Mtb growth Cornell": 3.161, "Mtb heat-shock": -3.892}
{"smiles": "CCc1nccn1C1CCCN(C(=O)CCOCC(F)(F)F)C1", "stereo": "stereo unspecified", "Mtb heat-shock": 12.31}
{"smiles": "CN(CCOc1ccccc1F)S(=O)(=O)CC1CCOCC1", "Mtb heat-shock": -1.798}
{"smiles": "Cc1cnc(CNc2ccccc2CN(C)C(=O)c2cccs2)o1", "Mtb growth Cornell": -72.27, "Mtb heat-shock": -8.408}
{"smiles": "Cc1cn2c(n1)CCC(NC(=O)CCCn1cncn1)C2", "stereo": "stereo unspecified", "Mtb growth Cornell": -12.33, "Mtb heat-shock": -16.7}
{"smiles": "O=C(c1cccc(-n2cnnn2)c1)N1CCC2(CC1)OCCO2", "Mtb growth Cornell": 15.1, "Mtb heat-shock": 0.3328}
{"smiles": "Cc1ncc2c(n1)CN(Cc1nnc(-c3ccccc3)o1)CC2", "Mtb heat-shock": 7.026}
{"smiles": "Cc1ccccc1N1CC2(CCN(S(=O)(=O)C3CC3)C2)CC1=O", "stereo": "stereo unspecified", "Mtb growth Cornell": 11.43, "Mtb heat-shock": -28.08}

The last 4 entries again:

{"smiles": "Cc1cn2c(n1)CCC(NC(=O)CCCn1cncn1)C2", "stereo": "stereo unspecified", "Mtb growth Cornell": -12.33, "Mtb heat-shock": -16.7}
{"smiles": "O=C(c1cccc(-n2cnnn2)c1)N1CCC2(CC1)OCCO2", "Mtb growth Cornell": 15.1, "Mtb heat-shock": 0.3328}
{"smiles": "Cc1ncc2c(n1)CN(Cc1nnc(-c3ccccc3)o1)CC2", "Mtb heat-shock": 7.026}
{"smiles": "Cc1ccccc1N1CC2(CCN(S(=O)(=O)C3CC3)C2)CC1=O", "stereo": "stereo unspecified", "Mtb growth Cornell": 11.43, "Mtb heat-shock": -28.08}